{"source": "PubChem BioAssay AID1259254 (NCATS, 2017)", "purpose": "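Genome-wide screen for genes that prevent DNA re-replication in cancer cells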 (primary screen)", "system": "human HCT116 colorectal cancer cells", "knock-down reagent": "single siRNA against human genes", "timing": "3 days", "measurement": "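Nuclei stained with Hoechst and imaged; cell-cycle phase assigned by DNA content; G2 share scaled per plate, non-targeting siRNA 0%, GMNN siRNA 100%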", "reading the numbers": "G2 robust z-score: higher = more G2 cells, more excess DNA replication", "rule for the call": "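Active siRNAs have a G2 robust z of 5 or more median absolute deviations over the median, which in these data means about 38% or higher of GMNN control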", "note": "Here is an unselected part of about 59,000 reagents. Over the whole deposit, about 1,550 (2.6%) are marked active. 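G2 share is only a proxy for re-replication; each gene was hit by three separate siRNAs, and active genes were retested.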 A number with no mark means an inactive call. Reagents against one gene are numbered here. Not all columns of the deposit are shown. The record does not give: the amount of reagent."}
{"gene": "DCUN1D2", "reagent": 1, "G2 robust z-score": 1.37}
{"gene": "DCUN1D2", "reagent": 2, "G2 robust z-score": -0.446}
{"gene": "DCUN1D2", "reagent": 3, "G2 robust z-score": -0.301}
{"gene": "TSPOAP1", "reagent": 1, "G2 robust z-score": -0.35}
{"gene": "TSPOAP1", "reagent": 2, "G2 robust z-score": -0.18}
{"gene": "TSPOAP1", "reagent": 3, "G2 robust z-score": -0.581}
{"gene": "SENP6", "reagent": 1, "G2 robust z-score": -0.36}
{"gene": "SENP6", "reagent": 2, "G2 robust z-score": -0.00717}
{"gene": "SENP6", "reagent": 3, "G2 robust z-score": -0.268}
{"gene": "MSL3B", "reagent": 1, "G2 robust z-score": -0.458}
{"gene": "MSL3B", "reagent": 2, "G2 robust z-score": 0.464}
{"gene": "MSL3B", "reagent": 3, "G2 robust z-score": -0.0205}
{"gene": "TUBB2A", "reagent": 1, "G2 robust z-score": 1.44}
{"gene": "TUBB2A", "reagent": 2, "G2 robust z-score": 1.02}
{"gene": "TUBB2A", "reagent": 3, "G2 robust z-score": 1.04}
{"gene": "ZNF596", "reagent": 1, "G2 robust z-score": 0.0905}
{"gene": "ZNF596", "reagent": 2, "G2 robust z-score": 3.01}
{"gene": "ZNF596", "reagent": 3, "G2 robust z-score": 4.63}
{"gene": "CD52", "reagent": 1, "G2 robust z-score": -0.76}
{"gene": "CD52", "reagent": 2, "G2 robust z-score": 0.112}
{"gene": "CD52", "reagent": 3, "G2 robust z-score": 0.208}
{"gene": "BFSP1", "reagent": 1, "G2 robust z-score": -0.678}
{"gene": "BFSP1", "reagent": 2, "G2 robust z-score": -1.07}
{"gene": "BFSP1", "reagent": 3, "G2 robust z-score": 1.26}
{"gene": "ITPA", "reagent": 1, "G2 robust z-score": 1.25}
{"gene": "ITPA", "reagent": 2, "G2 robust z-score": -1.05}
{"gene": "ITPA", "reagent": 3, "G2 robust z-score": 0.0703}
{"gene": "MYL12BP2", "reagent": 1, "G2 robust z-score": 3.89}
{"gene": "MYL12BP2", "reagent": 2, "G2 robust z-score": -0.932}
{"gene": "MYL12BP2", "reagent": 3, "G2 robust z-score": 0.213}

Laid out differently: 2 of the entries above
| gene | reagent | G2 robust z-score |
| --- | --- | --- |
| DCUN1D2 | 3 | -0.301 |
| TSPOAP1 | 1 | -0.35 |
